Some entries share one result that the patent states for a list of compounds.
Tested on: DPP IV
Assay type: binding
Settings: added to DPP IV coated wells; rabbit anti-DPP IV

## streptokinase [SK]
  inhibition of DPP IV anti-DPP IV reaction: 27-43%
